Reference: PMC13225219

Target: T1, GST-Drak (435-532) (Drosophila melanogaster) (UniProt Q0KHT7)
T1 sequence: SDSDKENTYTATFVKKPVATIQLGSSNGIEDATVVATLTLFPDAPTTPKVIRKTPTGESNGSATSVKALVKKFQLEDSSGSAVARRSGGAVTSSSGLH
Assay: pull-down; GST-Drak on glutathione agarose; 100 µl of 0.2-10 µM Filamin fragment, 20 min on ice in 20 mM Tris-HCl pH 7.5, 100 mM NaCl, 1 mM DTT; washed with PBS; stain-free SDS-PAGE, Filamin to Drak band ratio; both purified

| Substance | binding |
| --- | --- |
| Filamin-closed (five-domain Drosophila Filamin fragment Cher15-19closedMSR) (domain or fragment) | no binding (tested: 10 μM) |
| Filamin-open (five-domain Drosophila Filamin fragment Cher15-19openMSR) (domain or fragment) | binds |
| Filamin-wild type (five-domain Drosophila Filamin fragment Cher15-19wt) (domain or fragment) | binds weakly |

No constants are given. Whether binding was seen depends on the method and setting. Binding calls can cover weak binding; strength is not graded here. Where a sequence is shown, tags or fusion partners need not be part of it.
